# Measured data: PubChem BioAssay AID1159578 (Peter MacCallum Cancer Centre, 2015)
# Screen: 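Genome-wide hunt for genes controlling movement of lymphatic endothelial cells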 (primary screen)
# Cell system: human lymphatic endothelial cells
# Reagent: siRNA pool against human genes, 40 nM
# Duration: 48 h after transfection
# Measurement: 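Cells stained with dye and imaged after a scratch; covered wound area and nuclei counted, duplicates averaged, migration set against mock wells and turned into a robust z-score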
# Reading the numbers: migration robust z-score: higher = faster migration into the scratch; nuclei per well: higher = more cells in the well
# Rule for the call: 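Pools averaging fewer than 3300 nuclei are never called; remaining pools count as changed when migration robust z lies outside -2 to 2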
# Calls: active = migration changed; inactive = no migration change, or too few cells
# In all, the deposit lists about 18,000 reagents; shown is a part drawn at random. About 1,030 of all reagents (5.7%) count as active. 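Inactive calls also include pools with fewer than 3300 nuclei, whose migration was not assessed.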 The raw values are shown without normalisation. Further read-outs or replicates are left out here. No sequences are given here.
target gene,migration robust z-score,"nuclei per well, duplicate mean",outcome
SPIRE1 (spire type actin nucleation factor 1),-0.22,5564,inactive
CUL7 (cullin 7),-1.5,5272,inactive
PTPN6 (protein tyrosine phosphatase non-receptor type 6),-1.66,6032,inactive
C20orf96 (chromosome 20 open reading frame 96),0.78,5564,inactive
DCTD (dCMP deaminase),0.49,6211,inactive
FZD10 (frizzled class receptor 10),-0.5,4606,inactive
MTRR,-0.78,4164,inactive
LRRC26 (leucine rich repeat containing 26),0.65,5506,inactive
"LLPH (LLP homolog, long-term synaptic facilitation factor)",0.42,5640,inactive
EGF (epidermal growth factor),-0.96,4071,inactive
TBC1D15 (TBC1 domain family member 15),1.71,6659,inactive
MRPL45 (mitochondrial ribosomal protein L45),1.04,5355,inactive
FXYD4 (FXYD domain containing ion transport regulator 4),0.18,5553,inactive
PDE7B (phosphodiesterase 7B),0.83,6578,inactive
PRKD2 (protein kinase D2),-0.88,6559,inactive

Continued; the last 2 above are carried over.
target gene,migration robust z-score,"nuclei per well, duplicate mean",outcome
PDE7B (phosphodiesterase 7B),0.83,6578,inactive
PRKD2 (protein kinase D2),-0.88,6559,inactive
RACK1 (receptor for activated C kinase 1),-1.06,6824,inactive
LTN1 (listerin E3 ubiquitin protein ligase 1),-0.03,5593,inactive
RPS6KA3 (ribosomal protein S6 kinase A3),-2.21,5024,active
CFAP61 (cilia and flagella associated protein 61),0.92,6173,inactive
GARRE1 (granule associated Rac and RHOG effector 1),-0.18,4025,inactive
KRT10-AS1 (KRT10 antisense RNA 1),-2.34,4049,active
MISO1 (mitochondrial inner membrane subdomain organizer 1),0.55,5946,inactive
ANP32D (acidic nuclear phosphoprotein 32 family member D),0.13,5952,inactive
